Protein sequences, listed by entry. Tags and fused reporters are not part of them. Lines headed by an entry give the natural chain unless they say otherwise; changes in a name come on top.
UniProt O75718: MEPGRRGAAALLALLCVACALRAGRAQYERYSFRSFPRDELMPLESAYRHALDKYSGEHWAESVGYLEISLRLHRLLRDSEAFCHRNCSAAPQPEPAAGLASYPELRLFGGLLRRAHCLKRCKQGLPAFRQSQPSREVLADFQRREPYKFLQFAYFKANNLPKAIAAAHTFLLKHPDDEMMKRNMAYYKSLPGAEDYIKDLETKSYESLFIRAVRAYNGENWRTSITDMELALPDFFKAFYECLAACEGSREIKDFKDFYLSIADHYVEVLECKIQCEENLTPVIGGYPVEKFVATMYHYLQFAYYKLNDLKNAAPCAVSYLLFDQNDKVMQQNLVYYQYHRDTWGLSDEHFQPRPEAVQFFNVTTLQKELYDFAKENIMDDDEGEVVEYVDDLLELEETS
UniProt O94826, whole entry: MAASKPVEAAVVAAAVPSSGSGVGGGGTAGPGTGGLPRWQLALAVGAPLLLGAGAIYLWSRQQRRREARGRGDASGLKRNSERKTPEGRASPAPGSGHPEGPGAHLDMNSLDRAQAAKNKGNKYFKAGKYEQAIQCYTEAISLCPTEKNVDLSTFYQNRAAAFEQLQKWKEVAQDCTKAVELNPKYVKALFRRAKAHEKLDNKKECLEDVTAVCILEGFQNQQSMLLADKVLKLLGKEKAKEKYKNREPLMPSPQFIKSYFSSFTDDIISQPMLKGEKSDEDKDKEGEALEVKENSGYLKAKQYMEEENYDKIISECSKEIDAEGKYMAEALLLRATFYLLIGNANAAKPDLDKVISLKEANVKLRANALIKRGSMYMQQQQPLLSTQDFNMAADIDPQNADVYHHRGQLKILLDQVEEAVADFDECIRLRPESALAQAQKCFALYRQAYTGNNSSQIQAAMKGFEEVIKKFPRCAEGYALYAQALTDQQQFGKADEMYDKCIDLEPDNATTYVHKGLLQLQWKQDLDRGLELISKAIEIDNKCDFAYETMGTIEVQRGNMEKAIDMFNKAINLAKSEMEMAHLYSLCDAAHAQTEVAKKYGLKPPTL
UniProt O95243: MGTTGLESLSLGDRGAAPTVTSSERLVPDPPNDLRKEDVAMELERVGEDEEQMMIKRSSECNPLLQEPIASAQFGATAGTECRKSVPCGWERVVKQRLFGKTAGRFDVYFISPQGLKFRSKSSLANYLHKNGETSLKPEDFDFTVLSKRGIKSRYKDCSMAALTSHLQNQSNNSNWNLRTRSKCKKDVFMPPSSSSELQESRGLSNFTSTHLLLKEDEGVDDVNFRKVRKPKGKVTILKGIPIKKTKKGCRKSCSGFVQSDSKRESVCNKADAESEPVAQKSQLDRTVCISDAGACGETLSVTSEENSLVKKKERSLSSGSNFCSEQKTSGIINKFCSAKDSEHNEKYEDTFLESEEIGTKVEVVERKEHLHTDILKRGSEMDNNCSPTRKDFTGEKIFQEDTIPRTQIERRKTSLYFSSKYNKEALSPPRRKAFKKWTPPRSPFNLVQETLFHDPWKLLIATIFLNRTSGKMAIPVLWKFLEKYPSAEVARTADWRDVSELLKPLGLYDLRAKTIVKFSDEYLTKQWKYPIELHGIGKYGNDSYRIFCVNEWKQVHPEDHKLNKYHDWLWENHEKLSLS
UniProt O75467: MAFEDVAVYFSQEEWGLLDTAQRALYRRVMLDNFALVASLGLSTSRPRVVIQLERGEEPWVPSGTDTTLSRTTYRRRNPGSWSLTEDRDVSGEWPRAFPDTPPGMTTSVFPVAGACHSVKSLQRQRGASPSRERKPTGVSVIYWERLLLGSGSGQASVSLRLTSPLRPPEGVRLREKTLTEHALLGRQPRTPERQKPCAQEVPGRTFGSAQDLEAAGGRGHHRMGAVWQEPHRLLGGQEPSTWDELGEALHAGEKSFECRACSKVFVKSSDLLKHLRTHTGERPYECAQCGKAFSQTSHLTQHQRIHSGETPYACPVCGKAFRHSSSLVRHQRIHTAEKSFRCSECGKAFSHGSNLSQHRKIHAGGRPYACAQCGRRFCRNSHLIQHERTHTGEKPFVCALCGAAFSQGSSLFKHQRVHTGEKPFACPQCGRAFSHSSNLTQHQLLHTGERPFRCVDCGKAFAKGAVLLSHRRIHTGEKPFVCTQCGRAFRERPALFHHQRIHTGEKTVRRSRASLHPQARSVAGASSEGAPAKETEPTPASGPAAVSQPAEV
UniProt O95983: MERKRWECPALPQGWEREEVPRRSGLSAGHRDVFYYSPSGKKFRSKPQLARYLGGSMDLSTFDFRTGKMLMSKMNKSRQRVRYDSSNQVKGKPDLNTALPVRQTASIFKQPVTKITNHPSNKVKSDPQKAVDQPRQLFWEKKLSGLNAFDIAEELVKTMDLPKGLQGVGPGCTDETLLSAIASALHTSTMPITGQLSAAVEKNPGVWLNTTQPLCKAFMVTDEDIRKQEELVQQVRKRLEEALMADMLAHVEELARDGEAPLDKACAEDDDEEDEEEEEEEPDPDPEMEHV
UniProt O75935, whole entry: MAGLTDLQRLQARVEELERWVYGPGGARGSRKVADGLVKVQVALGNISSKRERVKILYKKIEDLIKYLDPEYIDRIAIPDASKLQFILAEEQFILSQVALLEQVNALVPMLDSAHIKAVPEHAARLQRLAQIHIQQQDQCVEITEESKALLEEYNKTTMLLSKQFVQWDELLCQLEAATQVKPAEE
UniProt O75937: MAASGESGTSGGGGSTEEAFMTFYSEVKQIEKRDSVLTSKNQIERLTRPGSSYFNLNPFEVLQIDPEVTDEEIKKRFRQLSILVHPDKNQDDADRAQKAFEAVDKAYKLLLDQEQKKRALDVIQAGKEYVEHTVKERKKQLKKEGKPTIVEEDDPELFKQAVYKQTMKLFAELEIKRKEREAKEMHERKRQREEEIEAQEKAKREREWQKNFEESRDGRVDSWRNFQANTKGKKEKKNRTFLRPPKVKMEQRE
UniProt O95881: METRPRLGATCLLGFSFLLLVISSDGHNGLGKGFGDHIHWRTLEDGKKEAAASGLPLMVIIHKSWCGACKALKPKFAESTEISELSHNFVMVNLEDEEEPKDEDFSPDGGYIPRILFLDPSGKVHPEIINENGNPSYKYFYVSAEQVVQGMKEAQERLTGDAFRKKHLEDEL
UniProt O95201: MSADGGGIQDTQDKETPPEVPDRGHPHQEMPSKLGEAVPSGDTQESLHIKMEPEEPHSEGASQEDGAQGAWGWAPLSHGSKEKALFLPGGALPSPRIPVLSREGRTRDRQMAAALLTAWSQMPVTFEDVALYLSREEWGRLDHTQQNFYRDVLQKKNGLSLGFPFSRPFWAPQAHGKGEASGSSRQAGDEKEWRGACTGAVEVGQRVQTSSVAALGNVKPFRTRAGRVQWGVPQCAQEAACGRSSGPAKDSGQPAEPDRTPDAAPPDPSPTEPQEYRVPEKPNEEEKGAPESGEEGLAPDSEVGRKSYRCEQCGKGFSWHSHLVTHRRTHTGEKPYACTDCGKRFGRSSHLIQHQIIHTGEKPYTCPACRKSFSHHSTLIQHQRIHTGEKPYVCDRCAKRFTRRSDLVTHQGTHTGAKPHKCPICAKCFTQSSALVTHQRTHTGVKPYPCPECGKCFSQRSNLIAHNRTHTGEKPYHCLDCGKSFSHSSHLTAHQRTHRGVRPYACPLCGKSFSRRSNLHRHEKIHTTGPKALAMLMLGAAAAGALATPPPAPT
UniProt O95292, whole entry: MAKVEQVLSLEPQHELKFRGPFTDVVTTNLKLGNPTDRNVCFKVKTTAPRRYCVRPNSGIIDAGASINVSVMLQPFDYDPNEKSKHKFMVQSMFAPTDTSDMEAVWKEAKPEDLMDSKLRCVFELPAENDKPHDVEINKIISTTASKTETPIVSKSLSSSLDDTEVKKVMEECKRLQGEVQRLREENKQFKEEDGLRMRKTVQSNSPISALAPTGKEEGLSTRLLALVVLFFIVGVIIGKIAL
UniProt O95394: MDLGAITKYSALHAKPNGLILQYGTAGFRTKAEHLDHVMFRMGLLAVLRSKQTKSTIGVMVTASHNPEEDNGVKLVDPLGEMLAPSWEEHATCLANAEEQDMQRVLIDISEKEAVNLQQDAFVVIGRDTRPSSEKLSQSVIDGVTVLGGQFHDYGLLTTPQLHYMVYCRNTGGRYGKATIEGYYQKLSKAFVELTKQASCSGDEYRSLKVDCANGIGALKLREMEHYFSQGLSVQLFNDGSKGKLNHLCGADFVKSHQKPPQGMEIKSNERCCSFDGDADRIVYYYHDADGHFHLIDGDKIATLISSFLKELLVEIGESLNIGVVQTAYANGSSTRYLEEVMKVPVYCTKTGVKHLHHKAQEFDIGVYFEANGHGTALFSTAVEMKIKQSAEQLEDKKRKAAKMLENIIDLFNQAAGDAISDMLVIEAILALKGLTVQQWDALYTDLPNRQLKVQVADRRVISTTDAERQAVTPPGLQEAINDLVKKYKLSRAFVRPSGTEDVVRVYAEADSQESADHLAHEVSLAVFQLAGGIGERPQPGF

This is one part of the list. Small differences around the control level are noise.
What follows are targets tested with Cc1nc(Nc2ncc(C(=O)Nc3c(C)cccc3Cl)s2)cc(N2CCN(CCO)CC2)n1 [dasatinib] (assay: log2 fold change of tryptic peptide abundance, ligand vs vehicle (limited proteolysis) (log2 ratio); higher = more trypsin-susceptible (destabilized)). Settings: ligand concentration: 5 uM; sample: K562 cleared lysate.
With “CRTAP (peptide sequence: FLQFAYFK, peptide start residue: 150) (UniProt O75718)” the log2 fold change was -0.116.
For “UniProt O94826 (peptide sequence: SDEDKDKEGEALEVK, peptide start residue: 279)”, the log2 fold change was 0.634.
For “MBD4 (peptide sequence: MAIPVLWK, peptide start residue: 473) (UniProt O95243)”, the log2 fold change was -0.523.
“ZNF324 (peptide sequence: RNPGSWSLTEDRDVSGEWPR, peptide start residue: 77) (UniProt O75467)” gave a log2 fold change of 0.239.
Target “MBD3 (peptide sequence: GKPDLNTALPVR, peptide start residue: 91) (UniProt O95983)” has a log2 fold change of -0.28.
With “DCTN3 (peptide sequence: YLDPEYIDR, peptide start residue: 67) (UniProt O75935)” the log2 fold change was -0.0721.
“DNAJC8 (peptide sequence: DSVLTSKNQIER, peptide start residue: 34) (UniProt O75937)” showed a log2 fold change of -0.652.
Work on “TXNDC12 (peptide sequence: KKHLEDEL, peptide start residue: 165) (UniProt O95881)” yielded a log2 fold change of -0.0936.
With “UniProt O95201 (peptide sequence: LDHTQQNFYR, peptide start residue: 141)” the log2 fold change was -1.16.
“VAPB (peptide sequence: VMEECKR, peptide start residue: 169) (UniProt O95292)” gave a log2 fold change of 0.568.
Target “PGM3 (peptide sequence: AFVRPSGTEDVVR, peptide start residue: 493) (UniProt O95394)” has a log2 fold change of -0.171.
